Test results taken from patent publication US20130216590A1, “TOPICAL ANTIVIRAL FORMULATIONS FOR PREVENTION OF TRANSMISSION OF HSV-2” (priority 2010, published 2013).
For at least one compound, name, drawing or mass did not settle the structure.

System: HIV-1X4LAI
Assay: Human ex vivo tonsillar tissue: HIV-1 replication by p24 release
Assay type: cell-based
Settings: 33 μg/ml

## Nc1ccn([C@@H]2CS[C@H](CO)O2)c(=O)n1 [lamivudine]
  effect on HIV-1 replication: potent effect
